The values that follow come from paper PMC5073233.

By UniProt entry, the sequences of proteins in these tests, tags left out. Where a name states a change or a piece, a line headed by the entry shows the natural chain unless it says otherwise.
UniProt Q99814: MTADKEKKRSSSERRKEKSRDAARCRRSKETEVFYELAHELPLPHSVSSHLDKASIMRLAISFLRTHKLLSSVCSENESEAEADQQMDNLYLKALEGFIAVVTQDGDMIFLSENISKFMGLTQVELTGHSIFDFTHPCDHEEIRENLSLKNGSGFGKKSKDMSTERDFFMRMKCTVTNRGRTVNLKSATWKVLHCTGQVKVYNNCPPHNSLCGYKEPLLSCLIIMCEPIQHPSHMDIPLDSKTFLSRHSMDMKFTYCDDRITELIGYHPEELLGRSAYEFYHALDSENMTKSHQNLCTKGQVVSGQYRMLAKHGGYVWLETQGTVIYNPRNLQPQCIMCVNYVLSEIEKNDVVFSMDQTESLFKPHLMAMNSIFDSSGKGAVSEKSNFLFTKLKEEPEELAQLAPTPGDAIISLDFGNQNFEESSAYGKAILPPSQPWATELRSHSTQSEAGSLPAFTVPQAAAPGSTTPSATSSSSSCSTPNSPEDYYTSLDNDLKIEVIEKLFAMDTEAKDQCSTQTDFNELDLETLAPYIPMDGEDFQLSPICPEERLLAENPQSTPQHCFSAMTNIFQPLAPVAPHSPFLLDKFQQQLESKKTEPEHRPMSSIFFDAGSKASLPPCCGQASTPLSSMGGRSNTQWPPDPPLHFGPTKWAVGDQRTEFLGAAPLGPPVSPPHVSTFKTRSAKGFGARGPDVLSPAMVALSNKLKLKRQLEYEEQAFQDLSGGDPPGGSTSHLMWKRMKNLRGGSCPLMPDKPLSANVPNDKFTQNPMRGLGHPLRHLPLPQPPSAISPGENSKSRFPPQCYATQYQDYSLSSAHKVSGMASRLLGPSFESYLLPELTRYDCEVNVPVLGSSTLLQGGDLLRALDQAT

The target of the data set is HIF-2alpha (hPMSC nuclear extract) (Homo sapiens) (UniProt Q99814). In words: EMSA. The following applies: LightShift EMSA kit: 1x binding buffer, 1 uL poly(dI-dC), 2.5% glycerol, 5 mM MgCl2, 0.05% NP-40 in 20 uL, 8 ug nuclear extract, room temperature 30 min, 6% gel, protein in an extract. For orientation: Mobility shift assays separate free from complexed probe on a gel.

For at least one entry, the source does not settle the construct or the ends of the probe. At least one result comes from cells or an extract, where the contact may be indirect. Weaker means in comparison with the reference protein, sequence or condition of that experiment.

For “CTCCCAAGTAGCTTGGATTACAGGCACGTGCCACCATGCCCAGCTAATTT (double strand) [MAPK3 promoter probe1 (HRE)]”, the binding result is “binds” (nuclear extract of hypoxic (5% O2) hPMSCs, shift lost with 200-fold unlabeled probe, anti-HIF-2alpha supershift assay) and “binds more weakly” (nuclear extract of normoxic (21% O2) hPMSCs, less shift than hypoxic extract (protein amount effect)).
